# Test results taken from PubChem BioAssay AID504834 (National Center for Advancing Translational Sciences (NCATS), 2011).
# The campaign covered roughly 320,000 compounds. About 22,000 (6.9%) were called active. The inconclusive results got no clear call from the source; some entries with a clear call stand among them for comparison. The call rests on the fitted dose curve; in most records, active means well fitted inhibition curve with a large enough effect; inconclusive means small, poorly fitted or top-dose-only effect, or another doubt; inactive means no such curve, though single readings can be large or run the other way. Potencies of inconclusive entries are doubtful fits and often do not repeat.
# Assay: Primary qHTS for delayed death inhibitors of the malarial parasite plastid, 96 hour incubation
# Details: P. falciparum luciferase reporter growth; series mostly up to 28.7 µM; activity change, negative = inhibition: at the top concentration
# In short: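 Two-generation exposure (96 h) targets delayed-death phenotype. Reporter parasites carrying integrated firefly luciferase, in red cells at 2% hematocrit and 0.05% parasitemia final, kept at 37 C, 5% CO2; luminescence loss indicates inhibition.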
# On the % scale 0 is the no-effect control and ±100 the full control effect; potency means the concentration at half of the fitted maximal effect.
SMILES,Potency,"activity change, negative = inhibition"
O=C(NCCc1nnc2ccc(NCc3ccc(F)cc3)nn12)c1ccccc1,"inconclusive: 0.117 µM [inhibitor, full curve, poor fit]",–
Cc1ccccc1OCc1ccc(C(=O)N2CC(C)OC(C)C2)o1 (stereo not given),"inconclusive: 18.5 µM [inhibitor, single point]",–
Cc1ccc(/C=C2/C(=O)N=C(N)N2C)s1,–,inactive: -5.55%
CCN(CC)CCNC(=O)c1ccc(NC(C)=O)cc1,inactive,–
O=C(NCCc1ccccc1)C1CCN(C2CCN(Cc3ccc(CO)o3)CC2)CC1,"inconclusive: 8.28 µM [inhibitor, partial curve, poor fit]",–
Cc1ccc(CCC(=O)Nc2ccc(CC(=O)O)cc2)o1,–,inactive: -18.4%
CCOc1ccc(NC(=O)CSc2n[nH]c(N)n2)c([N+](=O)[O-])c1,–,inactive: -0.233%
CCOc1ccc(-c2nc(CSCC(=O)NC3CCCc4ccccc43)c(C)o2)cc1 (stereo not given),active: 13.1 µM,–
Cc1cc2ccccn2c1C(=O)c1ccc(C#N)cc1,–,inactive: -15.7%
COc1ccc(C(=O)N/C(=C\c2ccco2)C(=O)NC2CCS(=O)(=O)C2)cc1 (stereo not given),"inconclusive: 18.5 µM [inhibitor, single point]",–
CCOc1ccc(/C(O)=C2/C(=O)C(=O)N(CCOCCO)C2c2ccccc2)cc1 (stereo not given),–,inactive: 29.5%
CC(=O)c1c(-c2ccccc2)[nH]c2ccccc12,"inconclusive: 18.5 µM [inhibitor, single point]",–
O=C(/C=C/c1ccco1)N1CCN(S(=O)(=O)c2ccc(F)c(F)c2F)CC1,"inconclusive: 4.65 µM [inhibitor, partial curve, poor fit]",–
CSCCC(NC(=O)COc1ccccc1)C(=O)N1CCN(c2ccccc2F)CC1 (stereo not given),"inconclusive: 10.4 µM [inhibitor, single point]",–
Cc1ccc(SCC2(O)CCN(S(=O)(=O)c3ccc(Cl)cc3)CC2)cc1,–,inactive: -29.6%
CCCCCCCNC(=O)C1(CC2CC(c3cccc(Br)c3)=NO2)CCNCC1 (stereo not given),active: 11.7 µM,–
O=[N+]([O-])c1ccc(/C=C/c2ccc3cccc([N+](=O)[O-])c3n2)cc1,–,inactive: -3.65%
CC(C)c1c(Cl)c(O)c(-c2ccccc2)c(=O)n1-c1ccc(F)cc1,–,inactive: 44.6%
CCN(CC)c1nc(OC)nc(-n2nnc(C(C)=O)c2C)n1,"inconclusive: 11.7 µM [inhibitor, single point]",–
Cc1coc2c(C)c3oc(=O)c(CCC(=O)NCCN4CCOCC4)c(C)c3cc12,"inconclusive: 6.57 µM [inhibitor, partial curve, poor fit]",–
CCC(C)(C(=O)NC1CCCC1)N(C(=O)Cc1cccs1)c1c(C)n(C)n(-c2ccccc2)c1=O (stereo not given),"inconclusive: 3.29 µM [inhibitor, partial curve, poor fit]",–
COCCn1c(=S)[nH]c2ccc(N(C)C)cc2c1=O,"inconclusive: 18.5 µM [inhibitor, single point]",–
CC(C)=C1C2CCC1C1C(=O)N(c3ccc(C)c(C)c3)C(=O)C21 (stereo not given),"inconclusive: 14.7 µM [inhibitor, single point]",–

SMILES,Potency,"activity change, negative = inhibition"
CN(Cc1ccccc1F)C(=O)c1sccc1-c1ccccc1,"inconclusive: 18.5 µM [inhibitor, single point]",–
NCCCn1c(C(=O)c2ccc(Cl)cc2)c2ccc(C(F)(F)F)cc2[n+]1[O-],"inconclusive: 11.7 µM [inhibitor, single point]",–
CC(C)C(=O)N1CCN(c2ccc(NC(=O)c3ccc([N+](=O)[O-])o3)cc2Cl)CC1,"inconclusive: 11.7 µM [inhibitor, single point]",–
Cc1ccc(C(c2nnnn2CCc2ccccc2)N2CCC(C)CC2)cc1 (stereo not given),–,inactive: 0.784%
CN1/C(=C\C(=O)COC(=O)c2ccco2)C(C)(C)c2ccccc21,–,inactive: 14.2%
CC(C)OP(=O)(c1ccccc1)c1ccccc1,"inconclusive: 18.5 µM [inhibitor, single point]",–
COC(=O)c1c(NC(=O)c2ccc(C)cc2)sc(Cc2ccccc2)c1C,–,inactive: 42.8%
O=C(NCCN1CCOCC1)c1c[nH]c2ccc(S(=O)(=O)N3CCOCC3)cc2c1=O,"inconclusive: 10.4 µM [inhibitor, single point]",–
O=C(O)c1ccc2ncc(NC(=O)c3ccc(F)cc3)c(=O)n2c1,"inconclusive: 0.329 µM [inhibitor, full curve]",–
Cc1cc(C)cc(N=Cc2[nH]c3ccc(Br)c(Cl)c3c2O)c1,"inconclusive: 18.5 µM [inhibitor, single point]",–
CCCCn1c(=O)[nH]c2nc3cc(N)ccc3nc2c1=O,"inconclusive: 11.7 µM [inhibitor, single point]",–
COCCCn1c(=O)c2sccc2n(Cc2ccccc2C)c1=O,"inconclusive: 16.5 µM [inhibitor, single point]",–
CC(NC(=O)CN(C)S(=O)(=O)c1cnc[nH]1)c1ccccc1 (stereo not given),"inconclusive: 0.104 µM [inhibitor, full curve, poor fit]",–
O=C(NCC1CCCO1)c1ccc(Cl)c(S(=O)(=O)Nc2ccccc2)c1 (stereo not given),"inconclusive: 14.7 µM [inhibitor, partial curve]",–
N#Cc1c(-c2cccc(Br)c2)cc(-c2cccnc2)nc1N,"inconclusive: 18.5 µM [inhibitor, single point]",–
C=CCOC(=O)C1=C(C)NC(=S)NC1c1cccs1 (stereo not given),"inconclusive: 18.5 µM [inhibitor, single point]",–
Cc1nc(N)sc1-c1csc(Nc2ncccn2)n1,–,inactive: 34.5%
CC(=O)N1CCN(c2ccc(NC(=O)c3ccccc3Br)cc2Cl)CC1,"inconclusive: 13.1 µM [inhibitor, partial curve, poor fit]",–
CN(C)/C=N/c1ncc(C(=O)c2ccc(Cl)cc2Cl)s1,"inconclusive: 1.17 µM [inhibitor, partial curve, poor fit]",–
CCCCN=C1NC(=O)C(CC(=O)Nc2ccc(Cl)cc2)S1 (stereo not given),"inconclusive: 9.28 µM [inhibitor, single point]",–
COCCNC(=O)/C(C#N)=C\c1ccc(CNS(=O)(=O)c2ccc(C)cc2)o1,–,inactive: -1.74%
Cc1ccc(NC(=O)Cn2nc(C)c([N+](=O)[O-])c2C)cc1C,"inconclusive: 0.522 µM [inhibitor, partial curve, poor fit]",–

# Some of the entries so far, tab-delimited.
SMILES	Potency	activity change, negative = inhibition
Cc1ccc(C(c2nnnn2CCc2ccccc2)N2CCC(C)CC2)cc1 (stereo not given)	–	inactive: 0.784%
CN1/C(=C\C(=O)COC(=O)c2ccco2)C(C)(C)c2ccccc21	–	inactive: 14.2%
COC(=O)c1c(NC(=O)c2ccc(C)cc2)sc(Cc2ccccc2)c1C	–	inactive: 42.8%
O=C(NCCN1CCOCC1)c1c[nH]c2ccc(S(=O)(=O)N3CCOCC3)cc2c1=O	inconclusive: 10.4 µM [inhibitor, single point]	–
O=C(O)c1ccc2ncc(NC(=O)c3ccc(F)cc3)c(=O)n2c1	inconclusive: 0.329 µM [inhibitor, full curve]	–
Cc1cc(C)cc(N=Cc2[nH]c3ccc(Br)c(Cl)c3c2O)c1	inconclusive: 18.5 µM [inhibitor, single point]	–
CC(NC(=O)CN(C)S(=O)(=O)c1cnc[nH]1)c1ccccc1 (stereo not given)	inconclusive: 0.104 µM [inhibitor, full curve, poor fit]	–
N#Cc1c(-c2cccc(Br)c2)cc(-c2cccnc2)nc1N	inconclusive: 18.5 µM [inhibitor, single point]	–
C=CCOC(=O)C1=C(C)NC(=S)NC1c1cccs1 (stereo not given)	inconclusive: 18.5 µM [inhibitor, single point]	–
Cc1nc(N)sc1-c1csc(Nc2ncccn2)n1	–	inactive: 34.5%
CC(=O)N1CCN(c2ccc(NC(=O)c3ccccc3Br)cc2Cl)CC1	inconclusive: 13.1 µM [inhibitor, partial curve, poor fit]	–
COCCNC(=O)/C(C#N)=C\c1ccc(CNS(=O)(=O)c2ccc(C)cc2)o1	–	inactive: -1.74%
Cc1ccc(NC(=O)Cn2nc(C)c([N+](=O)[O-])c2C)cc1C	inconclusive: 0.522 µM [inhibitor, partial curve, poor fit]	–
